Test results taken from paper PMC5353758.
No constants are given. Whether binding was seen depends on the method and setting. For some assays here: Binding seen in cells or lysates may run through a third protein. Some binding calls cover weakened binding; strength is not graded here. Where a sequence is shown, tags or fusion partners need not be part of it.

Sequences of proteins named here, by UniProt entry; tags and fusion partners are left off.
UniProt O14974: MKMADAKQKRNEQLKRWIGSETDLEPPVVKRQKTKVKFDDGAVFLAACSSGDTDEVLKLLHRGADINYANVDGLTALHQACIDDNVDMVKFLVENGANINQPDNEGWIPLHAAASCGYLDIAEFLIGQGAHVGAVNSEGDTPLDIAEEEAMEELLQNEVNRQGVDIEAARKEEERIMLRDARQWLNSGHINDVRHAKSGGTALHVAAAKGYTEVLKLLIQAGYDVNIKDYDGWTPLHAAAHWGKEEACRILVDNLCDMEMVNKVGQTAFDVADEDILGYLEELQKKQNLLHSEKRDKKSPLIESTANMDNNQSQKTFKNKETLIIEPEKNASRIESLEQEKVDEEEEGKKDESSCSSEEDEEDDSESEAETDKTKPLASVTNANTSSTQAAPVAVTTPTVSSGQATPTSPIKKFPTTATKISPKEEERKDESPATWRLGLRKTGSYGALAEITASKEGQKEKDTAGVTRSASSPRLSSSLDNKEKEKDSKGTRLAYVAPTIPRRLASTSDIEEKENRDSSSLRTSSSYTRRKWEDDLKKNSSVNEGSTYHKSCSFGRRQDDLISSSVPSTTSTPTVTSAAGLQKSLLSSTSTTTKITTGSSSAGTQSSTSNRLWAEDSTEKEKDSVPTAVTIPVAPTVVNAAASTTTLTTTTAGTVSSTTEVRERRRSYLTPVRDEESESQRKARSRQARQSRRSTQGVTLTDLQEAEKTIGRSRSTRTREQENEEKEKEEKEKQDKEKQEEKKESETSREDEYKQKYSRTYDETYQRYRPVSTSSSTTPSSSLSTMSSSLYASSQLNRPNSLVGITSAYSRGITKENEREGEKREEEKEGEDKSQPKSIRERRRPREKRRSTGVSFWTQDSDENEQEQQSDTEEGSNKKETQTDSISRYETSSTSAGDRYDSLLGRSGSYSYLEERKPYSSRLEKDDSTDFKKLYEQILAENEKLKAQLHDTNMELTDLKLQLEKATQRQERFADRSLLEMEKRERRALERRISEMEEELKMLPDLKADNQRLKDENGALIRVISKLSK

How the values were obtained:
FLAG-MYPT1 = FLAG-MYPT1 (UniProt O14974); assay: co-IP; lysates of tsA201 cells co-expressing FLAG-MYPT1 and c-myc-eNOS; anti-FLAG M2 or anti-c-myc EZview Red affinity gel; blots with anti-MYPT1 and anti-eNOS or anti-FLAG and anti-c-myc
[1] = molecular target: GST-MYPT1 (myosin phosphatase target subunit-1), full-length (UniProt O14974); assay: SPR; Biacore 3000; full-length GST-MYPT1 captured on anti-GST coupled CM5 chip; c-myc-eNOS at 0.5 or 1 μM injected; 10 mM Hepes pH 7.4, 0.15 M NaCl, 3 mM EDTA, 0.005% Surfactant P20; GST surface subtracted; both purified

binding (FLAG-MYPT1): binds
binding [1]: binds
B1: c-myc-eNOS (protein, UniProt P29473 1-1205)
chain: MGNLKSVGQEPGPPCGLGLGLGLGLCGKQGPASPAPEPSRAPAPATPHAPDHSPAPNSPTLTRPPEGPKFPRVKNWELGSITYDTLCAQSQQDGPCTPRCCLGSLVLPRKLQTRPSPGPPPAEQLLSQARDFINQYYSSIKRSGSQAHEERLQEVEAEVASTGTYHLRESELVFGAKQAWRNAPRCVGRIQWGKLQVFDARDCSSAQEMFTYICNHIKYATNRGNLRSAITVFPQRAPGRGDFRIWNSQLVRYAGYRQQDGSVRGDPANVEITELCIQHGWTPGNGRFDVLPLLLQAPDEAPELFVLPPELVLEVPLEHPTLEWFAALGLRWYALPAVSNMLLEIGGLEFSAAPFSGWYMSTEIGTRNLCDPHRYNILEDVAVCMDLDTRTTSSLWKDKAAVEINLAVLHSFQLAKVTIVDHHAATVSFMKHLDNEQKARGGCPADWAWIVPPISGSLTPVFHQEMVNYILSPAFRYQPDPWKGSATKGAGITRKKTFKEVANAVKISASLMGTLMAKRVKATILYASETGRAQSYAQQLGRLFRKAFDPRVLCMDEYDVVSLEHEALVLVVTSTFGNGDPPENGESFAAALMEMSGPYNSSPRPEQHKSYKIRFNSVSCSDPLVSSWRRKRKESSNTDSAGALGTLRFCVFGLGSRAYPHFCAFARAVDTRLEELGGERLLQLGQGDELCGQEEAFRGWAKAAFQASCETFCVGEEAKAAAQDIFSPKRSWKRQRYRLSTQAEGLQLLPGLIHVHRRKMFQATVLSVENLQSSKSTRATILVRLDTAGQEGLQYQPGDHIGICPPNRPGLVEALLSRVEDPPPPTESVAVEQLEKGSPGGPPPSWVRDPRLPPCTLRQALTFFLDITSPPSPRLLRLLSTLAEEPSEQQELETLSQDPRRYEEWKWFRCPTLLEVLEQFPSVALPAPLLLTQLPLLQPRYYSVSSAPNAHPGEVHLTVAVLAYRTQDGLGPLHYGVCSTWLSQLKTGDPVPCFIRGAPSFRLPPDPYVPCILVGPGTGIAPFRGFWQERLHDIESKGLQPAPMTLVFGCRCSQLDHLYRDEVQDAQERGVFGRVLTAFSREPDSPKTYVQDILRTELAAEVHRVLCLERGHMFVCGDVTMATSVLQTVQRILATEGDMELDEAGDVIGVLRDQQRYHEDIFGLTLRTQEVTSRIRTQSFSLQERHLRGAVPWAFDPPGPDTPGP
